# Percent effect of library compounds

Chains of the proteins cited; added tags and fusions are not shown. Residues count along the entry.
UniProt Q8IDJ8, 1-583: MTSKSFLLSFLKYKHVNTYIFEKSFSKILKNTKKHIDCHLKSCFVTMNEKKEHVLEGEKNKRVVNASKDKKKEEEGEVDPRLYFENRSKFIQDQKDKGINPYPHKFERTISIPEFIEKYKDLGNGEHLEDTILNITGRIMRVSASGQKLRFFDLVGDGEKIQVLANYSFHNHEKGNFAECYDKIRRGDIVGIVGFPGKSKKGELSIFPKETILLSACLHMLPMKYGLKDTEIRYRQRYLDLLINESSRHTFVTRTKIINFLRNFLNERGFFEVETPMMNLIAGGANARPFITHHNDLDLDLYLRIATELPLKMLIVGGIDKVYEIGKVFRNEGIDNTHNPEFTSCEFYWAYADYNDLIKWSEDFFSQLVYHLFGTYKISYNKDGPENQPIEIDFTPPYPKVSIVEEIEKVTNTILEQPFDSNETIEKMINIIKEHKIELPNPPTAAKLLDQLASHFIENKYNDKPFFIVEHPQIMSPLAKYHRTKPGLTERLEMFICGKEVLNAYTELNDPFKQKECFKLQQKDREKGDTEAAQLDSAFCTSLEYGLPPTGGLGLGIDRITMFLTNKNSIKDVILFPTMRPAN

From ChEMBL document CHEMBL3988442, “University of Dundee, Small-Polar-MMV Screening Library” (2021).

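Enzyme assay of the cytosolic lysyl-tRNA synthetase in 384-well plates, read by luminescence. Target: Lysine-tRNA ligase, Plasmodium falciparum 3D7 (UniProt Q8IDJ8). Compounds at 30 µM. Direction is inferred from only a few compounds that gave an IC50; most scored high, so higher reads as stronger inhibition. About 69,000 compounds were tested under these conditions; 0.071% (about 49) showed 50% or more at least once.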

Values are the deposited “Percent Effect”, in %.
How 0% and 100% were set is not recorded. Most values in the screen are low, and negative values occur.
The compounds are a random part of those screened.

CCS(=O)(=O)CCNc1nc(C2CCCC2)nc2c1cnn2C read 4.49%.
Cc1nn(C)c(C)c1CN(C)C(C(=O)O)c1ccc(F)cc1F (stereo unspecified) read 2.605%.
CC(C)C(=O)Nc1ccc(Sc2nncn2C)c(Cl)c1 read -0.7487%.
COCCN(C(=O)c1cc(-c2ccc(C)s2)[nH]n1)C1CC1 read 5.358%.
Cc1cccc(CN2CCN(c3nc(CO)cs3)CC2)c1 read 4.789%.
Cc1ccc(CN(Cc2nc3c(cnn3C)c(=O)[nH]2)C(C)C)s1 read -0.5555%.
N#Cc1ccc(CN2C[C@@H](F)[C@@H](OCc3nc4cnccc4[nH]3)C2)cc1 read 4.037%.
Cc1cccc(Cn2cc(Br)c(NS(C)(=O)=O)n2)c1 read 3.957%.
O=C(COc1ccccc1)N1CCC[C@]2(C[C@H](OCC3CC3)CO2)C1 read 2.782%.
COc1c(F)cc(CN2CCC3(CC2)CN(C)C(=O)O3)cc1Cl read 4.883%.
CN(CCn1ccc2ccccc21)C(=O)CS(C)(=O)=O read 6.058%.
CC(CNS(N)(=O)=O)Oc1cccc(Cl)c1 (stereo unspecified) read 0.9666%.
Cn1ccnc1C(=O)N1CCC2(CCN2CC2CC2)C1 (stereo unspecified) read 2.749%.
Cc1cc(F)c(C(C(=O)O)N2CCN(Cc3ccccn3)CC2)cc1Cl (stereo unspecified) read 6.145%.
COCCc1noc(CN2CC(Cc3ccccc3)CC2=O)n1 (stereo unspecified) read 8.178%.
Cc1cc(CN2CCN(C(=O)C3(C#N)CCCC3)CC2)on1 read -0.2376%.
Cc1nc2cc(-c3nccn3C)nn2c(N2CCC(O)CC2)c1C read 0.3562%.
CC(C)NC(=O)[C@H]1C[C@@H]2[C@@H](C1)OCCN2CC1CC1 read 5.461%.
CS(=O)(=O)c1ccc(C(=O)N2CCCC(n3ccnc3)C2)cc1 (stereo unspecified) read 1.573%.
Cc1cc(C)n(CC2CCCCN2CC(=O)Nc2nccs2)n1 (stereo unspecified) read 5.083%.
Oc1cccc(CNC2CCN(CCc3ccncc3)CC2)c1 read -0.6187%.
CC(C)(N)C(=O)N1CCCC(c2cncc(Oc3cccnc3)n2)C1 (stereo unspecified) read 4.948%.
Cc1cnc2c(c1NCc1ccc3c(c1)OCO3)c(=O)n(C)c(=O)n2C read 4.576%.
Cn1ccnc1N1CCN(C(=O)Cc2ccccc2)CC1 read -0.2218%.
Cn1ccnc1-c1cn(CCCc2nnc(N)s2)nn1 read 2.94%.
CCNC(=O)[C@@H]1CCCN1C1(C(=O)NC)CCCCC1 read 5.149%.
c1ccc(CN2CCCC(CNc3ncnc4c3CCNCC4)C2)cc1 (stereo unspecified) read -6.246%.
O=C(c1ccsc1)N1CC(C(=O)N2CCOCC2)C2(CCOCC2)C1 (stereo unspecified) read -2.187%.
O=C(NC1CCCCC1)N1CCC(N2Cc3ncccc3C2=O)CC1 read 5.54%.

Some entries from above, unchanged:

* Cc1cc(C)n(CC2CCCCN2CC(=O)Nc2nccs2)n1 (stereo unspecified) : 5.083%
* CN(CCn1ccc2ccccc21)C(=O)CS(C)(=O)=O : 6.058%
* Cc1cc(CN2CCN(C(=O)C3(C#N)CCCC3)CC2)on1 : -0.2376%
* c1ccc(CN2CCCC(CNc3ncnc4c3CCNCC4)C2)cc1 (stereo unspecified) : -6.246%